Test results taken from the supplement of paper PMC3334620.
In all, about 33,000 sequences were measured (“E-score (-0.5 to 0.5)”: median about -0.0014, highest 2% from about 0.25 on). Some of the results follow.

molecular target: T1, Cad1 (UniProt P24813); assay: PBM E-score (8-mer binding enrichment) (E-score (-0.5 to 0.5)); higher = stronger / more preferred TF binding; conditions: protein concentration: 100 nM; construct: GST-full length
T1 sequence: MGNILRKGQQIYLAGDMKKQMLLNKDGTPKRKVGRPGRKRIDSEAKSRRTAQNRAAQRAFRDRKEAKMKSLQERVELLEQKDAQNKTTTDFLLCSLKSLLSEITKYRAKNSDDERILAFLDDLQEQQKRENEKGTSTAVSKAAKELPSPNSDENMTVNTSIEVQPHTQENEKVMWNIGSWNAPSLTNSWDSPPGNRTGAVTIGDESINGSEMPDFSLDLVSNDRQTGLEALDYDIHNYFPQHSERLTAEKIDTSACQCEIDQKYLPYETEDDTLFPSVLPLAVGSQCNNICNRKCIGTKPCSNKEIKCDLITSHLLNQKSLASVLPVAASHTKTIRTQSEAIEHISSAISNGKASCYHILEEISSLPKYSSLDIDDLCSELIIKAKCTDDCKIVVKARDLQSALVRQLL
Outline: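 E-scores (a modified Wilcoxon-Mann-Whitney statistic) were assigned by the Universal PBM Analysis Suite to every ungapped eight-base word pooled with its reverse complement. The input came from universal all-10-mer Agilent arrays made double-stranded by primer extension and probed with GST-tagged yeast transcription factors at about 100-200 nM. Fluorescent anti-GST detected bound protein, and masliner normalised the scans.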

Compared with ATTGTGCA, CGGGAGCC is lower in “PBM E-score” value: 0.137 for the first, -0.225 for the second.

First: CCTGTCCG
Second: ACCCAAAG
The “PBM E-score” value of the first is higher: -0.0194 for the first, -0.0585 for the second.

Going from GTGTAGCA to CCTGCTTC, the “PBM E-score” value falls from -0.132 to -0.179.

Compared with CATATGCA, GGAAGGCC is lower in “PBM E-score” value: 0.0869 for the first, -0.169 for the second.

Going from GTGCAAAC to TACGAAGA, the “PBM E-score” value falls from -0.00691 to -0.0587.

First: AGCTTACT
Second: CGTCAACA
The “PBM E-score” value of the first is higher: 0.239 for the first, -0.023 for the second.

First: AGCTTAGA
Second: AGGTGATA
The “PBM E-score” value of the first is higher: 0.135 for the first, -0.0762 for the second.

First: CAAGAGTG
Second: CACCCGGG
The “PBM E-score” value of the first is higher: -0.0801 for the first, -0.116 for the second.

First: CCAGAAAG
Second: AAGGCAGC
The “PBM E-score” value of the first is lower: -0.0514 for the first, -0.0388 for the second.

Going from ACATATTG to CGTTCCAG, the “PBM E-score” value falls from 0.0269 to -0.189.

Going from TACAGAGA to AATGCCCA, the “PBM E-score” value rises from -0.179 to -0.154.

Compared with CCAGAGAA, GCAACTGC is higher in “PBM E-score” value: -0.0192 for the first, 0.106 for the second.

Going from ACTTGGGG to CAAAAAAC, the “PBM E-score” value rises from -0.141 to 0.12.

Going from GACAAACC to ACAATAAG, the “PBM E-score” value falls from 0.0702 to 0.0684.

Going from ATCTCGGC to GCCCATTA, the “PBM E-score” value falls from -0.0453 to -0.118.

Compared with ACAGTTCC, AATGTACG is lower in “PBM E-score” value: 0.125 for the first, 0.0769 for the second.

Compared with AAGACAAT, CCTTCTAC is lower in “PBM E-score” value: -0.138 for the first, -0.377 for the second.

Going from AGTATAGA to GTGCTTCA, the “PBM E-score” value rises from -0.0118 to 0.122.

First: CGCGGCCG
Second: ACGCCCCA
The “PBM E-score” value of the first is higher: 0.0945 for the first, -0.0692 for the second.

Compared with CTTCTTGC, CGGCGGAC is lower in “PBM E-score” value: 0.129 for the first, -0.0254 for the second.

First: GGGAAGCA
Second: CGCCAGCC
The “PBM E-score” value of the first is lower: -0.205 for the first, -0.0239 for the second.

Going from ACACTGGC to CCCCAGTA, the “PBM E-score” value falls from -0.171 to -0.24.

Going from CAATTTAC to GTCTTAAC, the “PBM E-score” value rises from -0.053 to -0.0501.

Going from CCGGGAGA to CCAAGAGC, the “PBM E-score” value falls from -0.138 to -0.147.

Compared with ATAGGCTC, CCGAAACG is higher in “PBM E-score” value: -0.044 for the first, -0.0141 for the second.

Going from CGTAGTGC to GGAAGCCA, the “PBM E-score” value falls from -0.0508 to -0.224.

Compared with CCGTGGTC, CCGCACCA is higher in “PBM E-score” value: -0.13 for the first, 0.0538 for the second.

Going from CCGAGCAA to CAGATAGA, the “PBM E-score” value falls from 0.0205 to -0.0851.

Going from GATATGCC to CGAGAACA, the “PBM E-score” value falls from 0.0905 to 0.0277.

Going from GCTGTTTA to GATCCACA, the “PBM E-score” value falls from 0.116 to 0.00989.

First: TGCCGGAA
Second: AAATTCCG
The “PBM E-score” value of the first is lower: 0.09 for the first, 0.174 for the second.

Compared with CAGAATGC, CCTCTCCA is lower in “PBM E-score” value: -0.0645 for the first, -0.335 for the second.

First: AGCCGGTC
Second: GACGACTA
The “PBM E-score” value of the first is higher: -0.014 for the first, -0.0692 for the second.

Compared with ACACTATC, TCACACCA is lower in “PBM E-score” value: 0.115 for the first, 0.0935 for the second.

First: CATAATTC
Second: ACGAGTCA
The “PBM E-score” value of the first is higher: 0.0611 for the first, -0.129 for the second.

Compared with AAATGTAC, CGTCTTCA is lower in “PBM E-score” value: 0.129 for the first, 0.0593 for the second.

Going from ACGGGTGA to GCCCACGC, the “PBM E-score” value rises from -0.125 to -0.113.

First: CGAAGAAA
Second: TAAACTAA
The “PBM E-score” value of the first is lower: 0.115 for the first, 0.186 for the second.

First: AGTGATCC
Second: AAAAAATC
The “PBM E-score” value of the first is lower: -0.0446 for the first, 0.0745 for the second.

Going from CAGTGATG to ACCTTCTC, the “PBM E-score” value falls from -0.00854 to -0.119.

Going from ACCTGCCG to GGGGGGAC, the “PBM E-score” value falls from -0.0997 to -0.488.

Compared with CCGCTGAG, ACTTGGAC is lower in “PBM E-score” value: 0.168 for the first, 0.0457 for the second.

First: AGACATAG
Second: TCAATGAA
The “PBM E-score” value of the first is higher: 0.0345 for the first, -0.0482 for the second.

Compared with AGCGGCTA, ATTGCGCC is lower in “PBM E-score” value: 0.0701 for the first, -0.061 for the second.

First: CAGTCAAG
Second: GGATCCCA
The “PBM E-score” value of the first is lower: -0.0975 for the first, -0.0273 for the second.

First: GCACCTAC
Second: TAGACCAA
The “PBM E-score” value of the first is lower: -0.0844 for the first, 0.053 for the second.

First: AGAACACA
Second: AGGTTAGC
The “PBM E-score” value of the first is higher: 0.0837 for the first, -0.248 for the second.

Compared with CTATGTGA, CGAACATA is higher in “PBM E-score” value: -0.00217 for the first, 0.244 for the second.

Going from CCAGCCAA to AGCTCACT, the “PBM E-score” value falls from 0.0738 to -0.0157.

First: CTTAACGA
Second: CGTGTTGA
The “PBM E-score” value of the first is lower: 0.063 for the first, 0.0903 for the second.

First: AGCTATCG
Second: AGTTCGTG
The “PBM E-score” value of the first is lower: 0.021 for the first, 0.102 for the second.

Compared with CGTTGCTA, ACTACATG is lower in “PBM E-score” value: 0.103 for the first, 0.0529 for the second.

Compared with ATTTCATA, CGCGGCAA is higher in “PBM E-score” value: 0.115 for the first, 0.124 for the second.

First: CCTCGTAG
Second: GTACTTGA
The “PBM E-score” value of the first is lower: -0.125 for the first, -0.119 for the second.

First: CAGTCGGC
Second: ACAAAGAG
The “PBM E-score” value of the first is lower: -0.193 for the first, -0.0509 for the second.

Going from ATCTACGG to CGGATACG, the “PBM E-score” value rises from 0.0751 to 0.146.

Going from GTCAGGCA to CCCTAGCC, the “PBM E-score” value falls from -0.0221 to -0.149.

First: CTTTAGGC
Second: ACGTACAA
The “PBM E-score” value of the first is lower: -0.2 for the first, -0.129 for the second.

First: CGTGGCAC
Second: CAGAGTCC
The “PBM E-score” value of the first is higher: 0.0211 for the first, -0.0501 for the second.

Compared with CCCAGCTC, GAATCCTC is lower in “PBM E-score” value: -0.115 for the first, -0.228 for the second.

Going from CTCAACGA to ATGACGCA, the “PBM E-score” value rises from -0.0873 to 0.0934.

Going from ATGGGAGG to GCCCGGCA, the “PBM E-score” value falls from -0.061 to -0.176.

Compared with AAATGGCT, ATTCAATG is higher in “PBM E-score” value: -0.029 for the first, 0.114 for the second.

First: AAGGTTAC
Second: GCTTTCCC
The “PBM E-score” value of the first is higher: 0.0461 for the first, -0.0589 for the second.

Going from CTTGTACC to TACAGCGA, the “PBM E-score” value falls from 0.0286 to -0.186.

First: CGGGTGTA
Second: AGCTCGTA
The “PBM E-score” value of the first is lower: -0.0514 for the first, -0.0393 for the second.

Compared with TGCATGCA, ATCGTCTC is lower in “PBM E-score” value: 0.184 for the first, 0.0796 for the second.

First: ACTACTAC
Second: ATGACCCC
The “PBM E-score” value of the first is higher: 0.0727 for the first, -0.219 for the second.

Compared with AGAAATGA, TACCAGAA is lower in “PBM E-score” value: 0.172 for the first, 0.0721 for the second.

Compared with CGTTCGAC, ACCGACTC is lower in “PBM E-score” value: 0.0224 for the first, -0.0642 for the second.

Going from TAAAATGA to CCAGTGGC, the “PBM E-score” value falls from 0.232 to 0.0328.

Going from CTATTACC to ACGGGTAC, the “PBM E-score” value falls from -0.0596 to -0.108.

First: AAGTAGAG
Second: GGGCTGAC
The “PBM E-score” value of the first is lower: -0.0745 for the first, 0.0304 for the second.

Going from AATAAGTG to AGCTTCTA, the “PBM E-score” value falls from 0.0346 to -0.107.

Compared with ACACATCT, CCCACTAA is higher in “PBM E-score” value: -0.054 for the first, -0.031 for the second.

Going from AAGGTCGG to ACCCACAA, the “PBM E-score” value rises from -0.192 to 0.17.

First: GACTGACC
Second: TCCATTCA
The “PBM E-score” value of the first is lower: -0.248 for the first, 0.0832 for the second.

Compared with CAACTCGG, AGAGCAGC is lower in “PBM E-score” value: -0.067 for the first, -0.158 for the second.

Going from CCGTCGGA to AGTGCCAT, the “PBM E-score” value falls from 0.0224 to -0.134.

First: GACCAATA
Second: GCACTAGC
The “PBM E-score” value of the first is higher: 0.0156 for the first, -0.0944 for the second.

Compared with CCGCCCTC, GGCTGCTA is higher in “PBM E-score” value: -0.196 for the first, -0.164 for the second.

First: CTAGCTGC
Second: CAAGTTTC
The “PBM E-score” value of the first is lower: -0.218 for the first, 0.0233 for the second.

First: ACCATGCT
Second: AAAGGTGT
The “PBM E-score” value of the first is higher: -0.0622 for the first, -0.0959 for the second.

Compared with CAGGACTC, CCCCAGAG is lower in “PBM E-score” value: -0.117 for the first, -0.245 for the second.

First: ACCCACTC
Second: AATTGACT
The “PBM E-score” value of the first is lower: -0.114 for the first, 0.165 for the second.

First: CCTTATTA
Second: AAGGCATT
The “PBM E-score” value of the first is higher: 0.211 for the first, -0.177 for the second.
